Measurements: article PMC5736936, “Xylopine Induces Oxidative Stress and Causes G2/M Phase Arrest, Triggering Caspase-Mediated Apoptosis by p53-Independent Pathway in HCT116 Cells” (Oxidative Medicine and Cellular Longevity, 2017)

Assays:
Assay in all cases: Cytotoxic activity, alamarBlue assay, 72 h
Assay type in all cases: cell-based
[1] = system: HepG2 (human hepatocellular carcinoma)
From the text: (§1) MCF7 (human breast carcinoma), HCT116 (human colon carcinoma), HepG2 (human hepatocellular carcinoma), SCC-9 (human oral squamous cell carcinoma), HSC-3 (human oral squamous cell carcinoma), HL-60 (human promyelocytic leukemia), K-562 (human chronic myelogenous leukemia), B16-F10 (murine melanoma), MRC-5 (human lung fibroblast), WT SV40 MEF (wild-type immortalized mouse embryonic fibroblast), and BAD KO SV40 MEF (BAD gene knockout immortalized mouse embryonic fibroblast) cell lines were obtained from the American Type Culture Collection (ATCC, Manassas, VA, USA). Cells were cultured in complete medium with appropriate supplements as recommended by ATCC. All cell lines were tested for mycoplasma using the Mycoplasma Stain Kit (Sigma-Aldrich) to validate the use of cells free from contamination. Primary cell culture of peripheral blood mononuclear cells (PBMC) was obtained by standard Ficoll density protocol. The Research Ethics Committee of the Oswaldo Cruz Foundation (Salvador, BA, Brazil) approved the experimental protocol (number 031019/2013). Cell viability was examined using trypan blue exclusion assay for all experiments.
(§2) Cell viability was quantified using the alamarBlue assay according to Ahmed et al.. Cells were inserted in 96-well plates for all experiments (7 × 10^4 cells/mL for adherent cells or 3 × 10^5 cells/mL for suspended cells in 100 μL of medium). After 24 h, xylopine was dissolved in dimethyl sulfoxide (DMSO) and added to each well and incubated for 72 h. […] Four (for cell lines) or 24 h (for PBMCs) before the end of incubation, 20 μL of a stock solution (0.312 mg/mL) of the alamarBlue (resazurin, Sigma-Aldrich Co., Saint Louis, MO, USA) was added to each well. Absorbance at 570 nm and 600 nm was measured using the SpectraMax 190 Microplate Reader (Molecular Devices, Sunnyvale, CA, USA), and the drug effect was quantified as the percentage of control absorbance.

[2] = system: MCF7 (human breast carcinoma);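 also: SI is noncancer IC50 (MRC-5 or PBMC) divided by cancer cell IC50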
From the text: as §1, §2

[3] = system: K562 (human chronic myelogenous leukemia);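 also: SI is noncancer IC50 (MRC-5 or PBMC) divided by cancer cell IC50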
From the text: as §1, §2

[4] = system: HCT116 (human colon carcinoma);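 also: SI is noncancer IC50 (MRC-5 or PBMC) divided by cancer cell IC50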
From the text: as §1, §2

[5] = system: HL-60 (human promyelocytic leukemia);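 also: SI is noncancer IC50 (MRC-5 or PBMC) divided by cancer cell IC50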
From the text: as §1, §2

[6] = system: HSC3 (human oral squamous cell carcinoma)
From the text: as §1, §2

[7] = system: B16-F10 (murine melanoma)
From the text: as §1, §2

O=C1[O][Pt]2([NH][C@@H]3CCCC[C@H]3[NH]2)[O]C1=O [OXA, oxaliplatin]
Selectivity index ([1]; IC50(MRC5)/IC50(HepG2)): 1.5
Selectivity index ([1]; IC50(PBMC)/IC50(HepG2)): 14.9
Selectivity index ([2]; IC50(MRC5)/IC50(MCF7)): 0.3
Selectivity index ([2]; IC50(PBMC)/IC50(MCF7)): 2.5
Selectivity index ([3]; IC50(MRC5)/IC50(K-562)): 1.7
Selectivity index ([3]; IC50(PBMC)/IC50(K-562)): 16.6
Selectivity index ([4]; IC50(MRC5)/IC50(HCT116)): 0.4
Selectivity index ([4]; IC50(PBMC)/IC50(HCT116)): 3.6
Selectivity index ([5]; IC50(MRC5)/IC50(HL-60)): 3.8
Selectivity index ([5]; IC50(PBMC)/IC50(HL-60)): 37.3
Selectivity index ([6]; IC50(MRC5)/IC50(HSC-3)): 0.5
Selectivity index ([6]; IC50(PBMC)/IC50(HSC-3)): 4.5
Selectivity index ([7]; IC50(MRC5)/IC50(B16-F10)): 15
Selectivity index ([7]; IC50(PBMC)/IC50(B16-F10)): 149
